This is an account of results in PMC3778836.

Chains of the proteins cited; added tags and fusions are not shown.
UniProt Q13535: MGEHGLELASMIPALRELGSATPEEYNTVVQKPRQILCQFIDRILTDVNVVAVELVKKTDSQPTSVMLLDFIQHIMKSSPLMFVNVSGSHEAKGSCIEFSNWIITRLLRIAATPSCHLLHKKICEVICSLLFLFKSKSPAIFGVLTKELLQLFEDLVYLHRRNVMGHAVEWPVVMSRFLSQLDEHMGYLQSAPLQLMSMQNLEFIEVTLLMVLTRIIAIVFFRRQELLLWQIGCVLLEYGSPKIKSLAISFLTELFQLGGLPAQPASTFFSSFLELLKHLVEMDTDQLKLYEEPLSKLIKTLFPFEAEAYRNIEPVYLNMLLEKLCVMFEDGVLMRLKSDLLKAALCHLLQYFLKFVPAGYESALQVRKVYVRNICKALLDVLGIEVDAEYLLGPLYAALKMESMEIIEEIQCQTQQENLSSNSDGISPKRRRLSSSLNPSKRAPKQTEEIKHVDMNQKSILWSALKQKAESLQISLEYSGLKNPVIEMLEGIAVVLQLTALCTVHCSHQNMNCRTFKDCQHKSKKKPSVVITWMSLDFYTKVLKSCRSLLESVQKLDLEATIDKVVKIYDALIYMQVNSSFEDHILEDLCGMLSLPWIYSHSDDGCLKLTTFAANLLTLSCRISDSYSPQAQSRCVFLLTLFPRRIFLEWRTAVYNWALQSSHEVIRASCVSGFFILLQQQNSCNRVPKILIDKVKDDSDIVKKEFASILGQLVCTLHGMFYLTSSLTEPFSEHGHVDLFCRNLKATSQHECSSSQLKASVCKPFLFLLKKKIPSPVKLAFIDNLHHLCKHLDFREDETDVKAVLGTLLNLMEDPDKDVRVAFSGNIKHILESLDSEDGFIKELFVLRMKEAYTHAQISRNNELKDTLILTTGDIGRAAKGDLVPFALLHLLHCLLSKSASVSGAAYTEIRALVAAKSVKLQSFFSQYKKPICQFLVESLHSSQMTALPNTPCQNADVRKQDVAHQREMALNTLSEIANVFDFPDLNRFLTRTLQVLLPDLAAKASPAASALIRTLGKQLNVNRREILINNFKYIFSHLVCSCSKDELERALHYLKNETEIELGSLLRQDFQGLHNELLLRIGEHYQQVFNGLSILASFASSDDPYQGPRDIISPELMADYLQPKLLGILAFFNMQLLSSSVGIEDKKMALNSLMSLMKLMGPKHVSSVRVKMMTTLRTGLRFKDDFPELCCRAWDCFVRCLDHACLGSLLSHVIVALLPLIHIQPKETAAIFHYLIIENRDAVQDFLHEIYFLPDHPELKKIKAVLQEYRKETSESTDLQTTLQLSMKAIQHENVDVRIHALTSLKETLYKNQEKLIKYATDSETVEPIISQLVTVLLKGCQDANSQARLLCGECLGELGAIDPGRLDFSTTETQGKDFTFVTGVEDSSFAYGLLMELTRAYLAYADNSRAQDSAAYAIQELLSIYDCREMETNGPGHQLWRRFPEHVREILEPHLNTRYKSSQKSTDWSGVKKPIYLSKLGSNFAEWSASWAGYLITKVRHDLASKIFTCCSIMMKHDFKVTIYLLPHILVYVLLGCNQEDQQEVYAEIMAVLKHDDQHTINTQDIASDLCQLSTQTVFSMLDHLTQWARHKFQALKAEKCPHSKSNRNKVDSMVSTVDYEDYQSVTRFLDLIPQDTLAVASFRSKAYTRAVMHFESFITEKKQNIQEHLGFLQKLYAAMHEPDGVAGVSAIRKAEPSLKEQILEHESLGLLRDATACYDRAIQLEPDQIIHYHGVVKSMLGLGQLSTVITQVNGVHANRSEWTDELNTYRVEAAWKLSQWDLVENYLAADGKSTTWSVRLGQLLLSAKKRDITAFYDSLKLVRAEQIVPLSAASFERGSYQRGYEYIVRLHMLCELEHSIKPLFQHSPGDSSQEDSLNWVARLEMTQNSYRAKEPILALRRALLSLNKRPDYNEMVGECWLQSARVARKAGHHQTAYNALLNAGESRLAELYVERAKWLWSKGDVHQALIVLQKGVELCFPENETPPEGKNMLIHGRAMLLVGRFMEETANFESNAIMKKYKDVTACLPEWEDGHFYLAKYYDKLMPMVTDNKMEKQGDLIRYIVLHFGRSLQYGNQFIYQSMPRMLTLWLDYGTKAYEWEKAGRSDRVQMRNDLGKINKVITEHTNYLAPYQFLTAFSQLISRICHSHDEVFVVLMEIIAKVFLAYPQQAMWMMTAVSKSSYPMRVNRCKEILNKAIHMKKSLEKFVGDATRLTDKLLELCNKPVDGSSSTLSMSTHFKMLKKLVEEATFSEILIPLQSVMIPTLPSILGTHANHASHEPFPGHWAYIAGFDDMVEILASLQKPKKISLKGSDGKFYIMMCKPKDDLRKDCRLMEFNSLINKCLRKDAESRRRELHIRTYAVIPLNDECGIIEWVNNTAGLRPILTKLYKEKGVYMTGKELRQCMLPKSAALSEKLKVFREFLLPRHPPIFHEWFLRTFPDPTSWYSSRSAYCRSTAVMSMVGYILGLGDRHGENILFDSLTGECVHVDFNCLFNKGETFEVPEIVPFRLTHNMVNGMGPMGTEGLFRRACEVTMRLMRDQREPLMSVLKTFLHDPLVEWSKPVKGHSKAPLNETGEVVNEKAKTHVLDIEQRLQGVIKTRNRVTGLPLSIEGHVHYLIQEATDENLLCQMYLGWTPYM

Holding throughout (assay): affinity purification with mass spectrometry; FLAG-HA-tagged bait stably expressed in HeLa S3; sequential anti-FLAG (M2 agarose, FLAG peptide elution) and anti-HA (12CA5) immunoprecipitation from nuclear extract; washes in 100 mM KCl, 20 mM Tris-HCl pH 8.0, 5 mM MgCl2, 10% glycerol, 0.1% Tween-20; 4-20% gradient gel, gel sections by LC-MS
Assay [1] concerns the target T1, FLAG-HA epitope-tagged XRCC2 (UniProt O43543).
T1 sequence: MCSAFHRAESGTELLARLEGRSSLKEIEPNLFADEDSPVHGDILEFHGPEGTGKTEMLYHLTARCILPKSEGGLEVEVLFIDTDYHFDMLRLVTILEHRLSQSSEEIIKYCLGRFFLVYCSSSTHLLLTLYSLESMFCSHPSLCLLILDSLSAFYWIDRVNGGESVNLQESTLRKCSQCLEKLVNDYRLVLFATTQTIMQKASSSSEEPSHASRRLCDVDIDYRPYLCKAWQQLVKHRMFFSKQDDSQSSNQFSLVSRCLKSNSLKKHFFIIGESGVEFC

Assay [2] concerns the target T2, Flag-HA-tagged POLN (UniProt Q7Z5Q5).
T2 sequence: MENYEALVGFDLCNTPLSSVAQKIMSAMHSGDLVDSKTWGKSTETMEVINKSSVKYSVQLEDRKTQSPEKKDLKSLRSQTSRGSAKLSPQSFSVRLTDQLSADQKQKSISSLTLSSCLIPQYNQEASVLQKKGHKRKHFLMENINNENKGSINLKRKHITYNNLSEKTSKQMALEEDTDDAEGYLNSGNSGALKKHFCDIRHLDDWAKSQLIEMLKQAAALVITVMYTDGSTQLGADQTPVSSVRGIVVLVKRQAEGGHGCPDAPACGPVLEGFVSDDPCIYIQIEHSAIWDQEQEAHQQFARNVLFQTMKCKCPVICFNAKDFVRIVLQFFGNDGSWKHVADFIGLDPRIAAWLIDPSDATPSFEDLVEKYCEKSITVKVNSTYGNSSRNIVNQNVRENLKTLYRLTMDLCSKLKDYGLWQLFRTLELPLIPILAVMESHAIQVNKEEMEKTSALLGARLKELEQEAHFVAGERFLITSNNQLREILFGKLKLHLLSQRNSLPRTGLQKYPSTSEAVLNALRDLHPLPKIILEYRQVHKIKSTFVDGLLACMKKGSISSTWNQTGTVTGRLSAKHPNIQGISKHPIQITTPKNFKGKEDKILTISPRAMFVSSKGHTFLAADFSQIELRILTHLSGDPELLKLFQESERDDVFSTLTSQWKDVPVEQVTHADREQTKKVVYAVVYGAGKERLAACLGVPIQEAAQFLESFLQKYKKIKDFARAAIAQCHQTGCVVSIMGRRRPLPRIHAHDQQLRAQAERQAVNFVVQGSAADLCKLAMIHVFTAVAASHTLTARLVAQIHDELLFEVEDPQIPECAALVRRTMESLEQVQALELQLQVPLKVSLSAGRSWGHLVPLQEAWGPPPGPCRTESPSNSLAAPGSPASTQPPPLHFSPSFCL

Assay [3] has as its target T3, FLAG-HA epitope-tagged HELQ (human) (UniProt Q8TDG4).
T3 sequence: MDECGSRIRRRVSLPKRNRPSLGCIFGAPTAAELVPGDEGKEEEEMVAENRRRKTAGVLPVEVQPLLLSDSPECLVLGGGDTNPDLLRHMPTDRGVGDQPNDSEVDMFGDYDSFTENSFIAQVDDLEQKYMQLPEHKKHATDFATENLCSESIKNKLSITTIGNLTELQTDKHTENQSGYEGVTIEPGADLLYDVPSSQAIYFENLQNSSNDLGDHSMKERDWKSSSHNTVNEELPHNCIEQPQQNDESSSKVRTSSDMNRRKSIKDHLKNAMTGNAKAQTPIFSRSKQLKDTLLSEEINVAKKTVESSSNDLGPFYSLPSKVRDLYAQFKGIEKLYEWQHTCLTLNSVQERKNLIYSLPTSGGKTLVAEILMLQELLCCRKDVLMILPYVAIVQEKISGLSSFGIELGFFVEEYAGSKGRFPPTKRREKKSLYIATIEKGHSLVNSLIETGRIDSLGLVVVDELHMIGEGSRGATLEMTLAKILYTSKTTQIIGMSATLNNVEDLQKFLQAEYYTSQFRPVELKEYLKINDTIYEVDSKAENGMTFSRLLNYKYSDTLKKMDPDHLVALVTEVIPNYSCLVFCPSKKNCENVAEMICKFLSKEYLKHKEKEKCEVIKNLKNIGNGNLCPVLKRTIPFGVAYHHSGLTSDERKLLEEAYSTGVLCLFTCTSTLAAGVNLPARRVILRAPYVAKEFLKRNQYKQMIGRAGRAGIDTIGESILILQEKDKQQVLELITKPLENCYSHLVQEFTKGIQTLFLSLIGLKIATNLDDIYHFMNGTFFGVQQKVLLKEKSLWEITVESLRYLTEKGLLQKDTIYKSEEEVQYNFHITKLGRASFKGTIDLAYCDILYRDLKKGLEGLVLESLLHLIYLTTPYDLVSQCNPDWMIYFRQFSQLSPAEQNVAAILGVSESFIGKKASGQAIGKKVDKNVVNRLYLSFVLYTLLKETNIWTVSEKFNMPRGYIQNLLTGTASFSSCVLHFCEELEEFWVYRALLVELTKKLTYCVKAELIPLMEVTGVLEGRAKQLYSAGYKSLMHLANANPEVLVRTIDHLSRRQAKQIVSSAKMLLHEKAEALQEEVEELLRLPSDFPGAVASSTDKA

No constants are given. Whether binding was seen depends on the method and setting. Binding seen in cells or lysates may run through a third protein. Here binding means that the protein was enriched with, or labelled near, the bait; the list need not be complete. For part of these data: A no says only that the protein was not detected with the bait. Sequences can lack the tags named with a protein.

Consider “ATR (endogenous, HeLa S3) (from UniProt Q13535 1-2644) (enzyme)”, for which the binding result in assay [1] is “no binding”; in assay [2], “no binding”; in assay [3] it was “binds”.
